Laboratory results: PMC5979608
No constants are given. Whether binding was seen depends on the method and setting. In cells and extracts the contact can be indirect. Some results given as binding are weak or reduced against the parent protein; the word gives no strength.

The chains behind the UniProt entries cited, without tags or fusion partners.
UniProt P21926: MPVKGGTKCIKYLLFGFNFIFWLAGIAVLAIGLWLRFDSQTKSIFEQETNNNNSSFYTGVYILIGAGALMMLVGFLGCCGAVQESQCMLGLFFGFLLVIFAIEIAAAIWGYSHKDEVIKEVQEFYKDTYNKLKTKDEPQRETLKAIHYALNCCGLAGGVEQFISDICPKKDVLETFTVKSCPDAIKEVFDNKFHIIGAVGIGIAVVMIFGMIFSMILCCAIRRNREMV

Columns and labels:
[1] = target: CD9 (human sperm) (human (endogenous in sperm)) (UniProt P21926); assay: co-IP; CD9 precipitated with polyclonal rabbit anti-CD9 (H-110) and Protein G Dynabeads from 1% CHAPS lysates of 5 x 10^7 sperm (mouse epididymal; human ejaculated, capacitated, acrosome-reacted), 4 °C, three RIPA washes; blot with polyclonal rabbit anti-CD81 (H-121)
[2] = target: T1, CD9 (mouse sperm) (mouse (endogenous in sperm)), P40240; assay: as above; details: remark: other sources report otherwise
T1 chain: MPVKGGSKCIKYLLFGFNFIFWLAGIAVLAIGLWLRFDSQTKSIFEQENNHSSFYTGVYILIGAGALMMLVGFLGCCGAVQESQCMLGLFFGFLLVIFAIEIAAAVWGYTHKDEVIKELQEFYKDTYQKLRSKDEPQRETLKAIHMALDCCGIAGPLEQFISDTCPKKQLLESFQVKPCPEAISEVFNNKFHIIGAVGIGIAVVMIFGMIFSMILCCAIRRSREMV

Molecule | binding [1] | binding [2]
CD81 (human sperm) (from UniProt P60033 1-236) | binds | 
CD81 (mouse sperm), P35762 1-236 (protein) MGVEGCTKCIKYLLFVFNFVFWLAGGVILGVALWLRHDPQTTSLLYLELGNKPAPNTFYVGIYILIAVGAVMMFVGFLGCYGAIQESQCLLGTFFTCLVILFACEVAAGIWGFVNKDQIAKDVKQFYDQALQQAVMDDDANNAKAVVKTFHETLNCCGSNALTTLTTTILRNSLCPSGGNILTPLLQQDCHQKIDELFSGKLYLIGIAAIVVAVIMIFEMILSMVLCCGIRNSSVY |  | no binding
